Article doi:10.1101/2024.10.10.617680
Where two headings read alike, the source gives them in different places. These are yes or no findings as the source states them, for the method shown. A result given as binding can be weak or reduced; the word gives no strength. Tags and fused reporters may be left off the sequences shown. For some assays here: In cells and extracts the contact can be indirect. Values belong to the binder of their own block, whether it stands above or below them.

Protein sequences, listed by entry. Tags and fused reporters are not part of them. Lines headed by an entry give the natural chain unless they say otherwise; changes in a name come on top.
UniProt P51587: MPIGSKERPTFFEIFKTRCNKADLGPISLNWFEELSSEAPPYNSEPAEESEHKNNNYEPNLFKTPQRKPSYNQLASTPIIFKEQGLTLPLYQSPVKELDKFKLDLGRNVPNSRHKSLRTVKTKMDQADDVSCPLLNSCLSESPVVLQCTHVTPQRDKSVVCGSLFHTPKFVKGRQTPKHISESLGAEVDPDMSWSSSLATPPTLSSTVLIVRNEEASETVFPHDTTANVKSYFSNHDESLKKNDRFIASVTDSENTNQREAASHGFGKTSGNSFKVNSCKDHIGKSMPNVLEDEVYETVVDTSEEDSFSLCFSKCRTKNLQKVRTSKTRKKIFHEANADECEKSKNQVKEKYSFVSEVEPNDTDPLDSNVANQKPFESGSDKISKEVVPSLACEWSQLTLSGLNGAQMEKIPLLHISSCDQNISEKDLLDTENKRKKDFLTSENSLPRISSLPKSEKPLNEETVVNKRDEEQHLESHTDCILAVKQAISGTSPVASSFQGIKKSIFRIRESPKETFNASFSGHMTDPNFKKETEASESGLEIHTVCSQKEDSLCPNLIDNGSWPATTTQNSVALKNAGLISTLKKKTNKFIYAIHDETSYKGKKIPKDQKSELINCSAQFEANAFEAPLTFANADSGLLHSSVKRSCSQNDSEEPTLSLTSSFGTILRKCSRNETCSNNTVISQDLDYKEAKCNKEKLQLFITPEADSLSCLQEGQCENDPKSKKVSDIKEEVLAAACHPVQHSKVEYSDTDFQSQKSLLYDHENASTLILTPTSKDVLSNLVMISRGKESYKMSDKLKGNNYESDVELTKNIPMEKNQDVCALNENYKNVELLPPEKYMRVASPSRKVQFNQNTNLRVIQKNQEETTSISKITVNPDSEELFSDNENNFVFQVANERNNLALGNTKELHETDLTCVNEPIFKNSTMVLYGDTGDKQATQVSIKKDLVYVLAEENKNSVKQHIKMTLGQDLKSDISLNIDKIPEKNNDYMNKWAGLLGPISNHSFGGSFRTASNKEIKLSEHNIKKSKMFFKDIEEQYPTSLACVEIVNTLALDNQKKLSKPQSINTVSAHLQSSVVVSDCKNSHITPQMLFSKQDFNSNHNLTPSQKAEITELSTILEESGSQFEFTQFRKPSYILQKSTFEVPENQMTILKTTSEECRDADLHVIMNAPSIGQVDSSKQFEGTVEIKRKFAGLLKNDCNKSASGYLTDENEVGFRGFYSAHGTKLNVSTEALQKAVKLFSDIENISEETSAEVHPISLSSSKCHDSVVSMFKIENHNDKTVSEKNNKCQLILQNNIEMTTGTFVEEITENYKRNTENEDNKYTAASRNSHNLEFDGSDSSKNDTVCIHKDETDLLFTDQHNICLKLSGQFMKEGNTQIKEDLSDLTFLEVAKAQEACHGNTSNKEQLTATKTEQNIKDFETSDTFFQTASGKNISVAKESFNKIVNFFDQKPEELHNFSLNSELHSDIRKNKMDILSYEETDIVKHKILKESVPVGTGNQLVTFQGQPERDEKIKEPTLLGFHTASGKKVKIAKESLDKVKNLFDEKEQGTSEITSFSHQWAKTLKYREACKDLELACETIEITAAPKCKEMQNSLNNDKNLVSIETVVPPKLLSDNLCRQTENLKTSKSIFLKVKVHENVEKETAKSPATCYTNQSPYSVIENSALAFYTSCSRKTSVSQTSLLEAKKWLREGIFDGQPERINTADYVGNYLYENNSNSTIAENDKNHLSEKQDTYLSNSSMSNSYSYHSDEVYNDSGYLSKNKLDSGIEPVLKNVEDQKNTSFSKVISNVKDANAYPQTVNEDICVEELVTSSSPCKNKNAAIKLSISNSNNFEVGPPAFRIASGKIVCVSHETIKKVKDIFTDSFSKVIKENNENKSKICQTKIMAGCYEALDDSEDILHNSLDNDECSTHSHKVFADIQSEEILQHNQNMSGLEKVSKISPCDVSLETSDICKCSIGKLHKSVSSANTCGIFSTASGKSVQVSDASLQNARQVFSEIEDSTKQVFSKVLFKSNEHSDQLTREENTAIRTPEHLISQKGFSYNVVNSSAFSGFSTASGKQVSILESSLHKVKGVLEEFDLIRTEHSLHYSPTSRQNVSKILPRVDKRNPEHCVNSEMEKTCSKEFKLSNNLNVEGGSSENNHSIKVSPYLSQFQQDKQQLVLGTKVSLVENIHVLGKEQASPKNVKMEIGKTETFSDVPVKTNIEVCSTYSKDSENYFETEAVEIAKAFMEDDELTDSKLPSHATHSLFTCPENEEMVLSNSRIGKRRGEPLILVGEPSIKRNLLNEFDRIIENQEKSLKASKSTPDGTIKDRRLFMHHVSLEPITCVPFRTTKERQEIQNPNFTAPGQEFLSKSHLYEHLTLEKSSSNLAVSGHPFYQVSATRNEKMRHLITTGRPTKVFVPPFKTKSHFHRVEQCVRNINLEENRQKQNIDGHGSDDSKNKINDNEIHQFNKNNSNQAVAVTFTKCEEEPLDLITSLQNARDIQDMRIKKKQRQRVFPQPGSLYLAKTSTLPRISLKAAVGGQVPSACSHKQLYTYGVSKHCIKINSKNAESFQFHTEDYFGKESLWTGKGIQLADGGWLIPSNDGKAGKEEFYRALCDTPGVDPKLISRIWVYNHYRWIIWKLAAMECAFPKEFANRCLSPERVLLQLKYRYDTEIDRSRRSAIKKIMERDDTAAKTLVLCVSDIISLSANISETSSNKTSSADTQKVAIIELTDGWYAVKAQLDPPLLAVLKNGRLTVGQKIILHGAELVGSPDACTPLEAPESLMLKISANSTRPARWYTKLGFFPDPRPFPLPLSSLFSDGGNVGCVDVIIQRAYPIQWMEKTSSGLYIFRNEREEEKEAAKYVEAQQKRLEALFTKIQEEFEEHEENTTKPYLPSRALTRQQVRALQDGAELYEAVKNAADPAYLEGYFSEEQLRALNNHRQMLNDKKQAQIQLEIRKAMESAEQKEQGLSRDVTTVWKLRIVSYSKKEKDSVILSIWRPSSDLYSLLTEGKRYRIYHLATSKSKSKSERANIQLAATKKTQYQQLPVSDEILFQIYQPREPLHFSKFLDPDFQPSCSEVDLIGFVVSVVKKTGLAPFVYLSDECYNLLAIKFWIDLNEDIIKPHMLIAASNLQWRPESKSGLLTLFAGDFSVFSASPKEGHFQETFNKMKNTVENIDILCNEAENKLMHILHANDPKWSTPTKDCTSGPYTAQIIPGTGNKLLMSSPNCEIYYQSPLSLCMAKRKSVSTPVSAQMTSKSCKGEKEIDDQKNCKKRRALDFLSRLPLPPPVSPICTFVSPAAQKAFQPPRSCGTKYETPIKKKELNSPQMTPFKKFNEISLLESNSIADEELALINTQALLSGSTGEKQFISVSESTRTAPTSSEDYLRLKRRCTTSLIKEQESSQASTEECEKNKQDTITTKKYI

Legend:
[1] = biological target: 2XMBP-tagged BRCA2 BRC1-2 (human) (UniProt P51587); experiment: pull-down
[2] = biological target: 2XMBP-tagged BRCA2 BRC1-4 (human) (UniProt P51587); experiment: pull-down
[3] = biological target: 2XMBP-tagged BRCA2 BRC1-8 repeats (human) (UniProt P51587); experiment: pull-down
[4] = biological target: 2XMBP-tagged BRCA2 BRC5-6 (human) (UniProt P51587); experiment: pull-down
[5] = biological target: 2XMBP-tagged BRCA2 BRC5-8 (human) (UniProt P51587); experiment: pull-down
[6] = biological target: 2XMBP-tagged BRCA2 BRC7-8 (human) (UniProt P51587); experiment: pull-down
[7] = biological target: 2XMBP-tagged BRCA2 N-terminal domain (human) (UniProt P51587); experiment: pull-down
[8] = biological target: GAL4 BD-BRC1-2 (HA-tagged BRC1-2 of BRCA2 fused to the GAL4 DNA binding domain) (human) (UniProt P51587); experiment: two-hybrid
[9] = biological target: GAL4 BD-BRC1-2 (HA-tagged BRC1-2 of BRCA2 fused to the GAL4 DNA binding domain) (human) (UniProt P51587); experiment: two-hybrid; remark: listed apart in the source
[10] = biological target: GAL4 BD-BRC1-2 (HA-tagged BRC1-2 of BRCA2 fused to the GAL4 DNA binding domain) (human) (UniProt P51587); experiment: two-hybrid; remark: listed apart in the source
[11] = biological target: GAL4 BD-BRC1-2 (HA-tagged BRC1-2 of BRCA2 fused to the GAL4 DNA binding domain) (human) (UniProt P51587); experiment: two-hybrid; remark: listed apart in the source

binding [1]: binds
binding [2]: binds
binding [3]: binds
binding [4]: binds
binding [5]: binds
binding [6]: binds
binding [7]: binds weakly
B1: HA-tagged RAD51D (protein, UniProt O75771 1-328)
chain: MGVLRVGLCPGLTEEMIQLLRSHRIKTVVDLVSADLEEVAQKCGLSYKALVALRRVLLAQFSAFPVNGADLYEELKTSTAILSTGIGSLDKLLDAGLYTGEVTEIVGGPGSGKTQVCLCMAANVAHGLQQNVLYVDSNGGLTASRLLQLLQAKTQDEEEQAEALRRIQVVHAFDIFQMLDVLQELRGTVAQQVTGSSGTVKVVVVDSVTAVVSPLLGGQQREGLALMMQLARELKTLARDLGMAVVVTNHITRDRDSGRLKPALGRSWSFVPSTRILLDTIEGAGASGGRRMACLAKSSRQPTGFQEMVDIGTWGTSEQSATLQGDQT

binding [8]: binds
binding [9]: binds
B2: GAL4 AD-RAD51D (protein, UniProt O75771 1-328)
chain: B1 chain

binding [3]: no binding
binding [7]: no binding
B3: HA-tagged RAD51C (protein, UniProt O43502 1-376)
chain: MRGKTFRFEMQRDLVSFPLSPAVRVKLVSAGFQTAEELLEVKPSELSKEVGISKAEALETLQIIRRECLTNKPRYAGTSESHKKCTALELLEQEHTQGFIITFCSALDDILGGGVPLMKTTEICGAPGVGKTQLCMQLAVDVQIPECFGGVAGEAVFIDTEGSFMVDRVVDLATACIQHLQLIAEKHKGEEHRKALEDFTLDNILSHIYYFRCRDYTELLAQVYLLPDFLSEHSKVRLVIVDGIAFPFRHDLDDLSLRTRLLNGLAQQMISLANNHRLAVILTNQMTTKIDRNQALLVPALGESWGHAATIRLIFHWDRKQRLATLYKSPSQKECTVLFQIKPQGFRDTVVTSACSLQTEGSLSTRKRSRDPEEEL

binding [1]: binds
binding [2]: binds
binding [3]: binds
binding [4]: binds
binding [5]: binds
binding [6]: binds
binding [7]: binds weakly
B4: HA-tagged XRCC2 (protein, UniProt O43543 1-280)
chain: MCSAFHRAESGTELLARLEGRSSLKEIEPNLFADEDSPVHGDILEFHGPEGTGKTEMLYHLTARCILPKSEGGLEVEVLFIDTDYHFDMLRLVTILEHRLSQSSEEIIKYCLGRFFLVYCSSSTHLLLTLYSLESMFCSHPSLCLLILDSLSAFYWIDRVNGGESVNLQESTLRKCSQCLEKLVNDYRLVLFATTQTIMQKASSSSEEPSHASRRLCDVDIDYRPYLCKAWQQLVKHRMFFSKQDDSQSSNQFSLVSRCLKSNSLKKHFFIIGESGVEFC

binding [10]: binds
binding [9]: binds
B5: GAL4 AD-XRCC2 (protein, UniProt O43543 1-280)
chain: B4 chain

binding [1]: binds
binding [2]: binds
binding [3]: binds
binding [4]: binds
binding [5]: binds
binding [6]: binds
binding [7]: no binding
B6: HA-tagged XRCC3 (protein, UniProt O43542 1-346)
chain: MDLDLLDLNPRIIAAIKKAKLKSVKEVLHFSGPDLKRLTNLSSPEVWHLLRTASLHLRGSSILTALQLHQQKERFPTQHQRLSLGCPVLDALLRGGLPLDGITELAGRSSAGKTQLALQLCLAVQFPRQHGGLEAGAVYICTEDAFPHKRLQQLMAQQPRLRTDVPGELLQKLRFGSQIFIEHVADVDTLLECVNKKVPVLLSRGMARLVVIDSVAAPFRCEFDSQASAPRARHLQSLGATLRELSSAFQSPVLCINQVTEAMEEQGAAHGPLGFWDERVSPALGITWANQLLVRLLADRLREEEAALGCPARTLRVLSAPHLPPSSCSYTISAEGVRGTPGTQSH

binding [11]: binds
binding [9]: binds
B7: GAL4 AD-XRCC3 (protein, UniProt O43542 1-346)
chain: B6 chain
